Experimental data from patent US11709165B2, “Examination method for prediction of effect of treatment of cancer based on detection of cancer/testis antibodies” (KAWASAKI GAKUEN EDUCATIONAL FOUNDATION, priority 2017, dated 2023).
Not every detail of the peptide structures is certain; ends, links or a residue may be inferred. Where no end group is shown, it is not given here.

Key:
Type in all cases: cell-based, human
[1] = test system: CD4 clone (4C34-1) T-cells; assay: Stimulated culture of CD4 clone T-cells with peptide, IFNγ in supernatant by ELISA; settings: 1 μM peptide, T-APCs, 12 hours
[2] = test system: CD4-positive T-cells from peripheral blood of vaccinated patients; assay: Induction of antigen-specific T-cells by XAGE1 vaccine: IFN-γ-producing CD4-positive T-cells by flow cytometry
[3] = test system: CD8 clone (8C34TY) T-cells; assay: Stimulated culture of CD8 clone T-cells with peptide, IFNγ in supernatant by ELISA; settings: 1 μM peptide, T-APCs, 12 hours
[4] = middle-dose administered patients

Row | Sequence | Recognition by CD4 clone 4C34-1 (IFNγ in supernatant) [1] | IFN-γ production of patients' CD4-positive T-cells on secondary stimulation with peptide [2, 4] | IFN-γ production of patients' CD4-positive T-cells on secondary stimulation with peptide ([2]; low-dose administered patients) | Recognition by CD8 clone 8C34TY (IFNγ in supernatant) [3]
1 | ISQTPGINLDLGSGVKVKIIPKEEH [SLP2] | recognized | cause the production of IFNγ |  | 
2 | NQQLKVGILHLGSRQKKIRIQLRSQ [SLP1] |  | cause the production of IFNγ | mainly respond | recognized
